Results deposited as PubChem BioAssay AID1259254 (NCATS, 2017)

Test: 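Finding genes that stop cells copying their DNA twice in one cycle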 (primary screen)
System: human HCT116 colorectal cancer cells
Knock-down reagent: single siRNA against human genes
Duration: 3 days
Measured: 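Imaged Hoechst DNA stain sorts each cell into a cycle phase by DNA amount; per plate, G2 fraction set to 0% for non-targeting and 100% for GMNN siRNA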
Reading the numbers: G2 robust z-score: higher = more G2 cells, more excess DNA replication
Hit rule: 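Active siRNAs have a G2 robust z of 5 or more median absolute deviations over the median, which in these data means about 38% or higher of GMNN control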
Here is a random part of about 59,000 reagents. In the full data, about 1,550 (2.6%) are marked active. 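G2 share is only a proxy for re-replication; each gene was hit by three separate siRNAs, and active genes were retested.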 Entries without a mark were called inactive. Reagents against one gene are numbered here. Not all columns of the deposit are shown. Not given: the amount of reagent.

For DIMT1 (DIM1 rRNA methyltransferase and ribosome maturation factor) #1, the values are G2 robust z-score 7.93 (active).
Knock-down of DIMT1 (DIM1 rRNA methyltransferase and ribosome maturation factor) #2 came out at: G2 robust z-score -0.195.
After knock-down of DIMT1 (DIM1 rRNA methyltransferase and ribosome maturation factor) #3, the record shows G2 robust z-score 2.95.
For RSBN1 (round spermatid basic protein 1) #1, the entry reads G2 robust z-score -0.713.
For RSBN1 (round spermatid basic protein 1) #2 the deposit lists G2 robust z-score -0.325.
RSBN1 (round spermatid basic protein 1) #3 gave G2 robust z-score -0.508.
For LINC00898 (long independently transcribed non-coding RNA 898) #1, the values are G2 robust z-score -0.0788.
After knock-down of LINC00898 (long independently transcribed non-coding RNA 898) #2, the record shows G2 robust z-score -0.839.
With knock-down of LINC00898 (long independently transcribed non-coding RNA 898) #3, the screen gave G2 robust z-score 0.946.
L3MBTL2 (L3MBTL histone methyl-lysine binding protein 2) #1 scored G2 robust z-score 0.691.
L3MBTL2 (L3MBTL histone methyl-lysine binding protein 2) #2 scored G2 robust z-score -0.67.
Against L3MBTL2 (L3MBTL histone methyl-lysine binding protein 2) #3, the values are G2 robust z-score 0.491.
Against GAS2L1 (growth arrest specific 2 like 1) #1, the entry reads G2 robust z-score -0.787.
GAS2L1 (growth arrest specific 2 like 1) #2 gave G2 robust z-score 2.53.
GAS2L1 (growth arrest specific 2 like 1) #3 showed G2 robust z-score 0.0366.
Silencing of UBR4 (ubiquitin protein ligase E3 component n-recognin 4) #1 came out at: G2 robust z-score 1.21.
UBR4 (ubiquitin protein ligase E3 component n-recognin 4) #2 gave G2 robust z-score -0.166.
Against UBR4 (ubiquitin protein ligase E3 component n-recognin 4) #3 the deposit lists G2 robust z-score -1.75.
After knock-down of RSPH14 (radial spoke head 14 homolog) #1, the record shows G2 robust z-score 0.509.
With knock-down of RSPH14 (radial spoke head 14 homolog) #2 the results were G2 robust z-score -0.317.
RSPH14 (radial spoke head 14 homolog) #3 showed G2 robust z-score 2.4.
For ODAM (odontogenic, ameloblast associated) #1 the deposit lists G2 robust z-score 0.346.
Against ODAM (odontogenic, ameloblast associated) #2, the values are G2 robust z-score -0.115.
ODAM (odontogenic, ameloblast associated) #3 gave G2 robust z-score 0.154.
For LOC728353 (retired record) #1, the entry reads G2 robust z-score 1.54.
Knock-down of LOC728353 (retired record) #2 resulted in: G2 robust z-score -0.895.
LOC728353 (retired record) #3 showed G2 robust z-score -0.55.
With knock-down of LPA (lipoprotein(a)) #1 the results were G2 robust z-score 2.33.
Against LPA (lipoprotein(a)) #2 the deposit lists G2 robust z-score 0.583.
LPA (lipoprotein(a)) #3 gave G2 robust z-score -0.774.

Active calls, of those listed so far:
DIMT1 (DIM1 rRNA methyltransferase and ribosome maturation factor) #1 → G2 robust z-score = 7.93 (active)
